Experimental data from PMC12518634, “The noncanonical function of liver-type phosphofructokinase potentiates the efficacy of HDAC inhibitors in cancer” (Signal Transduction and Targeted Therapy, 2025).
These are yes or no findings as the source states them, for the method shown. Binding seen in cells or lysates may run through a third protein. Some binding calls cover weakened binding; strength is not graded here. Sequences can lack the tags named with a protein.

By UniProt entry, the sequences of proteins in these tests, tags left out. Where a name states a change or a piece, a line headed by the entry shows the natural chain unless it says otherwise. Chains listed by the source or under a name are the forms on record and can include a tag or linker. Residues count along the entry.
UniProt Q13547: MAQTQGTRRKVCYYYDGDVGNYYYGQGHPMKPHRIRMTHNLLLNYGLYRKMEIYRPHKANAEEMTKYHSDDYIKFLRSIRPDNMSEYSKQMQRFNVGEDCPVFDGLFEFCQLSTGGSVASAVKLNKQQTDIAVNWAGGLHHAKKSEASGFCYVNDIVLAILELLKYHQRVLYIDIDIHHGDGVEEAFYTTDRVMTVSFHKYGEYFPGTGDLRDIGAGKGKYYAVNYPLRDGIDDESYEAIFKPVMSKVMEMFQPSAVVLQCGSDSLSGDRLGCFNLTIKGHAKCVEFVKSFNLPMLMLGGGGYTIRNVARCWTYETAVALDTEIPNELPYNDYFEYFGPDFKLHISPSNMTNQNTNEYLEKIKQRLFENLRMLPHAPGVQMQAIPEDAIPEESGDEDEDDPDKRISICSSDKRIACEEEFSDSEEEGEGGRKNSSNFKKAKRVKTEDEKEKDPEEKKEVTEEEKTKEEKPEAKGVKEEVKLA
Flag-tagged truncated HDAC1, H1 region (aa 1-321): residues 1-321 of Q13547
Flag-tagged truncated HDAC1, H4 region (aa 170-321): residues 170-321 of Q13547
Flag-tagged truncated HDAC1, H5 region (aa 183-321): residues 183-321 of Q13547

Legend:
Test in all cases: co-IP; MYC-tagged PFKL and Flag-tagged HDAC1 (full length, truncated or mutant) co-transfected in HEK293T cells; lysis buffer 150 mM NaCl, 25 mM Tris-HCl, 0.5% NP-40
[1] = target: Flag-tagged truncated HDAC1, H5 region (aa 183-321) (human) (UniProt Q13547)
[2] = target: Flag-tagged truncated HDAC1, H4 region (aa 170-321) (human) (UniProt Q13547)
[3] = target: Flag-tagged truncated HDAC1, H1 region (aa 1-321) (human) (UniProt Q13547)
[4] = target: Flag-tagged HDAC1, full length, wild type (human) (UniProt Q13547)

- binding [1]: no binding
- binding [2]: binds
- binding [3]: binds
- binding [4]: binds
B1: MYC-tagged PFKL, full length, wild type (enzyme, UniProt P17858 1-780)
chain: MAAVDLEKLRASGAGKAIGVLTSGGDAQGMNAAVRAVTRMGIYVGAKVFLIYEGYEGLVEGGENIKQANWLSVSNIIQLGGTIIGSARCKAFTTREGRRAAAYNLVQHGITNLCVIGGDGSLTGANIFRSEWGSLLEELVAEGKISETTARTYSHLNIAGLVGSIDNDFCGTDMTIGTDSALHRIMEVIDAITTTAQSHQRTFVLEVMGRHCGYLALVSALASGADWLFIPEAPPEDGWENFMCERLGETRSRGSRLNIIIIAEGAIDRNGKPISSSYVKDLVVQRLGFDTRVTVLGHVQRGGTPSAFDRILSSKMGMEAVMALLEATPDTPACVVTLSGNQSVRLPLMECVQMTKEVQKAMDDKRFDEATQLRGGSFENNWNIYKLLAHQKPPKEKSNFSLAILNVGAPAAGMNAAVRSAVRTGISHGHTVYVVHDGFEGLAKGQVQEVGWHDVAGWLGRGGSMLGTKRTLPKGQLESIVENIRIYGIHALLVVGGFEAYEGVLQLVEARGRYEELCIVMCVIPATISNNVPGTDFSLGSDTAVNAAMESCDRIKQSASGTKRRVFIVETMGGYCGYLATVTGIAVGADAAYVFEDPFNIHDLKVNVEHMTEKMKTDIQRGLVLRNEKCHDYYTTEFLYNLYSSEGKGVFDCRTNVLGHLQQGGAPTPFDRNYGTKLGVKAMLWLSEKLREVYRKGRVFANAPDSACVIGLKKKAVAFSPVTELKKDTDFEHRMPREQWWLSLRLMLKMLAQYRISMAAYVSGELEHVTRRTLSMDKGF
